Literature values as cited in patent publication US20060047171A1, “Catalytic hydrogenation of nitriles to produce capsaicinoid derivatives and amine compounds, and methods for purifying and obtaining the polymorphs thereof” (priority 2003, published 2006).

System: response latency on heated plate
Conditions: 5.0 mg/Kg s. c.; mice; cited from earlier work

**Q.** For `CN1CC[C@]23c4c5ccc(O)c4O[C@H]2[C@@H](O)C=C[C@H]3[C@H]1C5.Cl` [Morphine-HCl], which “Inhibition (%)” value is on record?
**A.** 49.0%
